Assay results from publication doi:10.1101/2022.10.30.514394.
Read-outs that look alike come from different tables or passages of the source. These are yes or no findings as the source states them, for the method shown. In cells and extracts the contact can be indirect. Some binding calls cover weakened binding; strength is not graded here. Each block holds one substance with its values, some of them ahead of it.

Amino acid sequences for entries named in this document (tags omitted).
UniProt P41164: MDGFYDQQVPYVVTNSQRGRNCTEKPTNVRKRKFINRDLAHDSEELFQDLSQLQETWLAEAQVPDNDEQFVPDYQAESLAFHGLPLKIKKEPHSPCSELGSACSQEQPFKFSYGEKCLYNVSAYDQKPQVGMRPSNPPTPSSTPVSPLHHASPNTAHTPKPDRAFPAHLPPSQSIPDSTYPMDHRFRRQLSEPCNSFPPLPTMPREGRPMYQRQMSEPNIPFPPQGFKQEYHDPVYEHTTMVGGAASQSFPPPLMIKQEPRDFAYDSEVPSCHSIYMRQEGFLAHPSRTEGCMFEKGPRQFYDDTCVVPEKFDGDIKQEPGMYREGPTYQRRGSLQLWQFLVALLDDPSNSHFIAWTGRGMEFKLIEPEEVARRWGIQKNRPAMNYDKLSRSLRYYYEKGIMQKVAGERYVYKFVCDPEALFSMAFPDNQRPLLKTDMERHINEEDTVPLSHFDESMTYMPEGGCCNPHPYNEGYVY
UniProt Q62521: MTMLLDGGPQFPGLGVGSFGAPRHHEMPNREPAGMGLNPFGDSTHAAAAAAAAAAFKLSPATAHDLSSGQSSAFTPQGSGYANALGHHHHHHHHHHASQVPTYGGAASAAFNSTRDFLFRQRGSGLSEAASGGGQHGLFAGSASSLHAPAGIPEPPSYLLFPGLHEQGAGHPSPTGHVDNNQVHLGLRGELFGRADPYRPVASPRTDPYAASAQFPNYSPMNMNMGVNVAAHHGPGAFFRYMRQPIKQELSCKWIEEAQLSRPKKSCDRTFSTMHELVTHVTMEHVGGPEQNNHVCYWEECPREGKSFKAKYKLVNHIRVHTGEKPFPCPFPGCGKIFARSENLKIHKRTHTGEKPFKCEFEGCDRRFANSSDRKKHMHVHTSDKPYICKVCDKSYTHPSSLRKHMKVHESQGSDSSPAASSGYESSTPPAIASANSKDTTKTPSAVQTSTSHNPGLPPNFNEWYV
UniProt P46684: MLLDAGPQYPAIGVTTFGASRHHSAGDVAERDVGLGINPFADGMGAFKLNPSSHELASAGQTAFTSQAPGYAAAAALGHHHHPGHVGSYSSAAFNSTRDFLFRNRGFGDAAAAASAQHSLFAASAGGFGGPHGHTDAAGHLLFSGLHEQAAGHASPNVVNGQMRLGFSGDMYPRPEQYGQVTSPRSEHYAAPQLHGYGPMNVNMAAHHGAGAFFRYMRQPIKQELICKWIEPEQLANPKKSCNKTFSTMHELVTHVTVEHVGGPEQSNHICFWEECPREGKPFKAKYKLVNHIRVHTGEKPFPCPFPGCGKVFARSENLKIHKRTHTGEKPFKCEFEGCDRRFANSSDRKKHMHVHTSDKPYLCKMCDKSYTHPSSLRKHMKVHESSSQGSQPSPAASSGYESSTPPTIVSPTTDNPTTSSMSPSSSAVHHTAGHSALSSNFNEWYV

Experiments:
Experiment in all cases: co-IP
[1] = target: ER81, endogenous in mouse olfactory bulb (mouse (endogenous in olfactory bulb)) (UniProt P41164)
[2] = target: 3X FLAG-ER81 (mouse) (UniProt P41164)
[3] = target: 3X FLAG-ER81 (mouse) (UniProt P41164); remark: listed apart in the source
[4] = target: ZIC3, endogenous in mouse olfactory bulb (mouse (endogenous in olfactory bulb)) (UniProt Q62521)

- binding [1]: binds
Substance: ZIC3, endogenous in mouse olfactory bulb (from UniProt Q62521 1-466)

- binding [2]: no binding
Substance: ZIC1 (from UniProt P46684 1-447)

- binding [3]: binds
- binding [2]: binds
Substance: ZIC3-GST (full length ZIC3, Zinc finger transcription factor of Cerebellum 3) (from UniProt Q62521 1-466)

- binding [4]: binds
Substance: ER81, endogenous in mouse olfactory bulb (from UniProt P41164 1-477)
